The target in assay [1] is Flag-tagged HMGB1 (wild type) (UniProt P09429). The assay can be described thus: co-IP; 293T cells transfected with Flag-tagged HMGB1 or its deletion mutants; lysates immunoprecipitated with anti-Flag antibody; blot for Flag and VCP.
Assay [2] concerns the target High-mobility group box 1 (HMGB1), endogenous (human (endogenous in MHCC-LM3, Huh7, 293T)) (UniProt P09429). The assay can be described thus: co-IP; endogenous proteins in Huh7 and MHCC-LM3 lysates (RIPA buffer), specific antibody or same-species IgG overnight at 4 °C, protein A/G agarose; both directions.
The target in assay [3] is His-tagged full-length VCP (wild type) (UniProt P55072). The assay can be described thus: co-IP; 293T cells transfected with His-tagged VCP or its deletion mutants; lysates immunoprecipitated with anti-His antibody; blot for His and HMGB1.
Assay [4] has as its target Valosin-containing protein (VCP), endogenous (human (endogenous in Huh7, MHCC-LM3, 293T)) (UniProt P55072). In words: co-IP; endogenous proteins in Huh7 and MHCC-LM3 lysates (RIPA buffer), specific antibody or same-species IgG overnight at 4 °C, protein A/G agarose; both directions.
The target of assay [5] is GST-tagged VCP fusion protein (UniProt P55072). In words: pull-down; purified GST-tagged proteins incubated with whole lysate of MHCC-LM3 cells at 4 °C overnight; bound proteins analysed by SDS-PAGE and blot; only the target purified.

Chains of the proteins cited; added tags and fusions are not shown.
UniProt P09429: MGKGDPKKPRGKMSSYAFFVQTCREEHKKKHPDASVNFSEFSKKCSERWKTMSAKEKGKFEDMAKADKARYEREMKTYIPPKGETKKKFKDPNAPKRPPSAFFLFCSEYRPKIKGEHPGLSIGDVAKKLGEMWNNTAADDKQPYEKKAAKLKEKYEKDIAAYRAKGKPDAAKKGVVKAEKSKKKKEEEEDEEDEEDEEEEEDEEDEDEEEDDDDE

These are yes or no findings as the source states them, for the method shown. Binding seen in cells or lysates may run through a third protein. Some binding calls cover weakened binding; strength is not graded here.

For “Valosin-containing protein (VCP), endogenous (from UniProt P55072 1-806)”, the binding entry in assay [1] and in assay [2] was “binds” in each case.

As to “High-mobility group box 1 (HMGB1), endogenous (from UniProt P09429 1-215)”, the binding entry in assay [3], in assay [4] and in assay [5] was “binds” in each case.

Values taken from article PMC9102726.
